Test results: article PMC9154761, “Development of Praziquantel sulphonamide derivatives as antischistosomal drugs” (Journal of Enzyme Inhibition and Medicinal Chemistry, 2022)

By UniProt entry, the sequences of proteins in these tests, tags left out.
UniProt A0A3S5H5R2, entry or part of it: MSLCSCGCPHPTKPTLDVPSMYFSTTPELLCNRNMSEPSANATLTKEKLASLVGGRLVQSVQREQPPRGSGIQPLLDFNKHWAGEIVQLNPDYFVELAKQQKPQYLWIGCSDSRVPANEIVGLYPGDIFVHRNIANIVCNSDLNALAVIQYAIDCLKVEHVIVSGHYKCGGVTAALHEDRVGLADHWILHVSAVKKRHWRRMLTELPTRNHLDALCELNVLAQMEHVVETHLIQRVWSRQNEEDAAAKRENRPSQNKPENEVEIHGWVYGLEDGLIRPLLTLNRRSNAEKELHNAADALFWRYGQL

Biological target: LdCA (Leishmania donovani, UniProt A0A3S5H5R2)
Assay: biochemical
Conditions: stopped flow CO2 hydrase assay; mean from three different assays
Method: An Applied Photophysics stopped-flow instrument was used to assay the CA catalysed CO2 hydration activity. […]. The uncatalyzed rates were determined in the same manner and subtracted from the total observed rates. Stock solutions of the inhibitor (0.1 mM) were prepared in distilled–deionized water and dilutions up to 0.01 nM were done thereafter with the assay buffer. Inhibitor and enzyme solutions were preincubated together for 15 min at room temperature prior to the assay, to allow for the formation of the E–I complex. The inhibition constants were obtained by non-linear least-squares methods using PRISM 3 and the Cheng-Prusoff equation as reported earlier and represent the mean from at least three different determinations. All CA isoforms were recombinant proteins obtained in house, as reported earlier[14]^,[26–29].

- Ki: 91.7 ± 5.8 nM
SMILES: CC(=O)Nc1nnc(S(N)(=O)=O)s1 [AAZ, acetazolamide, reference compound]
